No constants are given. Whether binding was seen depends on the method and setting. Binding seen in cells or lysates may run through a third protein. Some results given as binding are weak or reduced against the parent protein; the word gives no strength.
Target: GFP-CD2AP (U2OS, Figure 4C) (not stated (CD2AP and xCD2AP plasmids listed)) (UniProt Q9Y5K6)
Assay: co-IP

Chains of the proteins cited; added tags and fusions are not shown.
UniProt Q9Y5K6: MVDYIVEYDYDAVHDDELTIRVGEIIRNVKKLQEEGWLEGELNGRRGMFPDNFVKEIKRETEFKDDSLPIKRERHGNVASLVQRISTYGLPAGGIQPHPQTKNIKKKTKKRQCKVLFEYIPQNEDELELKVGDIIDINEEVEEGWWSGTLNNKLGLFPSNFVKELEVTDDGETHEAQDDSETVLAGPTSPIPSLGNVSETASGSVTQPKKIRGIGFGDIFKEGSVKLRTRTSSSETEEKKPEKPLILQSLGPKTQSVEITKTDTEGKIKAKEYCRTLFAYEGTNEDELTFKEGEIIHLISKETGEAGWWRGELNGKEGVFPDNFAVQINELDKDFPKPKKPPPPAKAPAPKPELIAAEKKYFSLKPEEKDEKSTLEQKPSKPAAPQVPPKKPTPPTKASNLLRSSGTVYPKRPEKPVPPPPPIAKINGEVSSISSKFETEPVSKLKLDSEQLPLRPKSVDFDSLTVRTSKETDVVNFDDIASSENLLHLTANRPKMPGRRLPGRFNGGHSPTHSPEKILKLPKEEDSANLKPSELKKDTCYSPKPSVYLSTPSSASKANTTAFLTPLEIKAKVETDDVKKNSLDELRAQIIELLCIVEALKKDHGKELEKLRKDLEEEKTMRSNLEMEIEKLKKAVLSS

B1: PAWS1 (endogenous, U2OS) (protein, UniProt A6ND36-1 1-823)
chain: MAFSQVQCLDDNHVNWRSSESKPEFFYSEEQRLALEALVARGRDAFYEVLKRENIRDFLSELELKRILETIEVYDPGSEDPRGTGPSQGPEDNGVGDGEEASGADGVPIEAEPLPSLEYWPQKSDRSIPQLDLGWPDTIAYRGVTRASVYMQPPIDGQAHIKEVVRKMISQAQKVIAVVMDMFTDVDIFKDLLDAGFKRKVAVYIIVDESNVKYFLHMCERACMHLGHLKNLRVRSSGGTEFFTRSATKFKGALAQKFMFVDGDRAVCGSYSFTWSAARTDRNVISVLSGQVVEMFDRQFQELYLMSHSVSLKGIPMEKEPEPEPIVLPSVVPLVPAGTVAKKLVNPKYALVKAKSVDEIAKISSEKQEAKKPLGLKGPALAEHPGELPELLPPIHPGLLHLERANMFEYLPTWVEPDPEPGSDILGYINIIDPNIWNPQPSQMNRIKIRDTSQASAQHQLWKQSQDSRPRPEPCPPPEPSAPQDGVPAENGLPQGDPEPLPPVPKPRTVPVADVLARDSSDIGWVLELPKEEAPQNGTDHRLPRMAGPGHAPLQRQLSVTQDDPESLGVGLPNGLDGVEEEDDDDYVTLSDQDSHSGSSGRGPGPRRPSVASSVSEEYFEVREHSVPLRRRHSEQVANGPTPPPRRQLSAPHITRGTFVGPQGGSPWAQSRGREEADALKRMQAQRSTDKEAQGQQFHHHRVPASGTRDKDGFPGPPRYRSAADSVQSSTRNAGPAMAGPHHWQAKGGQVPRLLPDPGSPRLAQNARPMTDGRATEEHPSPFGIPYSKLSQSKHLKARTGGSQWASSDSKRRAQAPRDRKDP
For B1, the binding was “binds”.

Reference: publication doi:10.1101/106971
